Data from patent publication US8114968.
Positions count from the first letter of the chain named. Results are given in words; binding and its absence hold for the method and conditions named. Some results given as binding are weak or reduced against the parent protein; the word gives no strength. Blank lines part the entries; values can stand above or below the binder they belong to.

By UniProt entry, the sequences of proteins in these tests, tags left out. Where a name states a change or a piece, a line headed by the entry shows the natural chain unless it says otherwise.
UniProt P39900: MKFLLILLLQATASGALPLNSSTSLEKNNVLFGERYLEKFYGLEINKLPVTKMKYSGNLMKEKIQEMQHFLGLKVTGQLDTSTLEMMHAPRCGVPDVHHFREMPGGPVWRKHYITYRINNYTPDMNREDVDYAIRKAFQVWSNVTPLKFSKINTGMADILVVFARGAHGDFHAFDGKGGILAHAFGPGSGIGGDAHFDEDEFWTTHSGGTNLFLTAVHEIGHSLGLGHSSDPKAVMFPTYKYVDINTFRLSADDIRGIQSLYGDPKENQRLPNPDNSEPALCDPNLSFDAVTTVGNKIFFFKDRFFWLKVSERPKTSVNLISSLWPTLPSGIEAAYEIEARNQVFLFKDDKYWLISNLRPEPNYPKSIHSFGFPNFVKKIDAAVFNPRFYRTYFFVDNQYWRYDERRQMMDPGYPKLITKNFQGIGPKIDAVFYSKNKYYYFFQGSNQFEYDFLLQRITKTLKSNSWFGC
UniProt P34960: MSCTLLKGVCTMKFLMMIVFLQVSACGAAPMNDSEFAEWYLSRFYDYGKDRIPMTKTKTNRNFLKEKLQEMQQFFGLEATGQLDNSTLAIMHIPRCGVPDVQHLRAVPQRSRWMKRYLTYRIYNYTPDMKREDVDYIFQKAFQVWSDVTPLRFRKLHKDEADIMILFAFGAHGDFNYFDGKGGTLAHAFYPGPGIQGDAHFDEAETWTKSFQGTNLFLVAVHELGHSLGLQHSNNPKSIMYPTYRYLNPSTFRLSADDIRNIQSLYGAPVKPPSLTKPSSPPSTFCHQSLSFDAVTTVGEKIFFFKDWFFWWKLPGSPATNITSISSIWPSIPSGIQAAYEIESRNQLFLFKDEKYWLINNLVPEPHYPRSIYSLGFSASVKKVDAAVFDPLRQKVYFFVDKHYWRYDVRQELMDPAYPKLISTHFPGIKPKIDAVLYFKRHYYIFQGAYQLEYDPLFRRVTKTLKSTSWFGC

Assays:
[1] = target: human MMP-12 (human) (UniProt P39900); assay: ELISA competition binding assay, FIG. 5
[2] = target: murine MMP-12 (mouse) (UniProt P34960); assay: ELISA competition binding assay, FIG. 5
[3] = target: human MMP-12 (human) (UniProt P39900); assay: MMP-12 activity against antibody concentration, FIGS. 2A-2C
[4] = target: murine MMP-12 (mouse) (UniProt P34960); assay: as above
[5] = target: human MMP-12 (human) (UniProt P39900); assay: human MMP-12 activity against antibody concentration, FIG. 9
[6] = target: human MMP-12 (human) (UniProt P39900); assay: inhibition assays and affinity ranking of affinity matured clones
[7] = target: murine MMP-12 (mouse) (UniProt P34960); assay: as above

B1: 539A-M0016-A11 IgG (antibody, V domains shown)
VH: EVQLLESGGGLVQPGGSLRLSCAASGFTFSEYQMAWVRQAPGKGLEWVSSIYPSGGHTHYADSVKGRFTISRDNSKNTLYLQMNSLRAEDTAVYYCAKESYYDFWSGYYFDYWGQGTLVTVSS
VL: DIQMTQSPSSLSASVRDRVTITCRTSQNINTYLNWYYQAPGRAPKLLIFGVSSLHRGVSSRFSGSGDGTEFTLTISSLQPEDIGTYFCQQSYSSPWTFGQGTKVEIK
binding [1]: binds

B3: 539A-M0013-G12 IgG (antibody, V domains shown)
VH: EVQLLESGGGLVQPGGSLRLSCAASGFTFSWYHMFWVRQAPGKGLEWVSGISSSGGYTHYADSVKGRFTISRDNSKNTLYLQMNSLRAEDTAVYYCATREGMLYDYVWGENYMDVWGKGTTVTVSS
VL: DIQMTQSPSSLSASVGDRVTITCQASQDTYNRLHWYQQKPGKAPKLLIYDAVNLNRGVPSRFRGSGSGTNYILIITNLQPEDTATYYCQHSDDLSLAFGGGTKVEIK
binding [1]: binds

B4: 539B-M0008-H09 (format not stated) (antibody, V domains shown)
VH: EVQLLESGGGLVQPGGSLRLSCAASGFTFSDYNMHWVRQAPGKGLEWVSYIGPSGGYTHYADSVKGRFTISRDNSKNTLYLQMNSLRAEDTAVYYCAKDIRGAYSSGLFDYWGRGTLVTVSS
VL: DIQMTQSPSSLSASVGDRVTITCRANQSIYTYLNWYQQKPGKAPELLIYAASSLQSGVPSRFSGSGSGTDFTLTISSLQPEDFATYYCQQAGIFGQGTKLEIK
binding [1]: binds | binding [2]: binds | binding [3]: binds | binding [4]: binds

Continued, values first:

binding [2]: binds
B2: 539B-M0011-H11 Fab (Fab, V domains shown)
VH: EVQLLESGGGLVQPGGSLRLSCAASGFTFSWYNMWWVRQAPGKGLEWVSYIYPSGGNTGYADSVKGRFTISRDNSKNTLYLQMNSLRAEDTAVYYCAVFEYSSSGPQGYWGQGTLVTVSS
VL: QSALTQPPSVSVAPGQTARITCGGNNIGTKSVHWYQQKSGQAPVLVVYDNSDRPSGIPERFSGSNSGNTATLTISRVEAGDEADYYCQVWDNSIDHVVFGGGTKLTVL

binding [5]: binds
B5: 539B-M131A06-GA-S (antibody, V domains shown)
VH: B4 VH with D31W, N33W, Y50G, G52S, Y57M, H59M, K98R, R101V, A103P, S106A
VL: DIQMTQSPSSLSASVGDRVTITCRASQSIYTYLNWYQQKPGKAPKLLIYAASSLQSGVPSRFSGSGSGTDFTLTISSLQPEDFATYYCQQAGIFGQGTKLEIKR

binding [6]: binds | binding [7]: binds
B6: 539B-M131A06 (antibody, V domains shown)
VH: B4 VH with D31W, N33W, Y50G, G52S, Y57M, H59M, K98R, R101V, A103P, S106A
VL: B4 VL
